Patent publication US20070253950A1
No constants are given. Whether binding was seen depends on the method and setting. Some results given as binding are weak or reduced against the parent protein; the word gives no strength.

Chains of the proteins cited; added tags and fusions are not shown. Lines headed by an entry give the natural chain unless they say otherwise; changes in a name come on top.
UniProt P09429: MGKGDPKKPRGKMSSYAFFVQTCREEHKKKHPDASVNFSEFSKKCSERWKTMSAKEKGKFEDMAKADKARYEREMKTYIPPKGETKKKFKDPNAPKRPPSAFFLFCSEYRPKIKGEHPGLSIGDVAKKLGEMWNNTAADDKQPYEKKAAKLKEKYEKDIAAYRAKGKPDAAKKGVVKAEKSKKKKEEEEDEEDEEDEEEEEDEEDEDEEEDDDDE
UniProt Q15109: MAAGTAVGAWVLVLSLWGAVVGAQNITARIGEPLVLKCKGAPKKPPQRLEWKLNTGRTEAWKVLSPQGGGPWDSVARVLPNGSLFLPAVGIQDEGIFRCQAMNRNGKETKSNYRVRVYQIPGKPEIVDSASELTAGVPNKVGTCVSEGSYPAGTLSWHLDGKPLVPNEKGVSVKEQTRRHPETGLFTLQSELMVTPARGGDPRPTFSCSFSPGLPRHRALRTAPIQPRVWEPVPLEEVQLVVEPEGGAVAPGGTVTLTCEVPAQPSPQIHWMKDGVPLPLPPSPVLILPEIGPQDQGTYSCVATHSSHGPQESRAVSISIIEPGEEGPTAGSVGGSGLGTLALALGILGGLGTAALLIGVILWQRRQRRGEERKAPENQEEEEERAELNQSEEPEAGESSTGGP

Target: HMGB1 (Homo sapiens (Human)) (UniProt P09429)
Assay: ELISA: HMGB1 coated, hRAGE-Fc (0.1 ug/ml per paragraph 256) detected with anti-huIgG-HRP

For “human RAGE-Fc fusion protein (from UniProt Q15109 23-344)”, which binding is on record?
The binding was “binds”.
